Primary screen of a compound library

Sequences of proteins named here, by UniProt entry; tags and fusion partners are left off. Residues count along the entry.
UniProt A4I591, 1-473: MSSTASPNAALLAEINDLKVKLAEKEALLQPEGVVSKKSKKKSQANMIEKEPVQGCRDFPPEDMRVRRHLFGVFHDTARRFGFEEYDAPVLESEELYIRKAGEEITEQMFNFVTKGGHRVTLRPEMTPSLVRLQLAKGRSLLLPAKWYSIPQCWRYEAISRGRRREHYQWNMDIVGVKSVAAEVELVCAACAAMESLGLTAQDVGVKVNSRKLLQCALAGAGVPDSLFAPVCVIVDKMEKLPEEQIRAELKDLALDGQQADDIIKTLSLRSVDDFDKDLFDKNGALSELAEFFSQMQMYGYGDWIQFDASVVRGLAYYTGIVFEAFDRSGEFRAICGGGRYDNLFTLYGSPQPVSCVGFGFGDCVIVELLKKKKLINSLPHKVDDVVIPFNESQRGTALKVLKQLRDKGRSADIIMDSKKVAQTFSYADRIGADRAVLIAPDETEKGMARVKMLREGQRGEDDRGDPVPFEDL

From ChEMBL document CHEMBL3988442, “University of Dundee, Small-Polar-MMV Screening Library” (2021).

LiHisRS: 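Histidine-tRNA ligase, Leishmania infantum (UniProt A4I591). Enzyme assay of histidyl-tRNA synthetase; the read-out is not stated. Concentration: 30 µM. The record gives no direction; compounds that gave an IC50 in retests scored well above the rest, so higher reads as stronger inhibition. The assay is labelled LdHisRS but filed under L. infantum. Of about 69,000 compounds tested this way, about 410 (0.6%) reached 50% or more in at least one test.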
Toxoplasma: 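Assay of Toxoplasma gondii numbers, read through their beta-galactosidase reporter with a colour substrate. Compounds at 10 µM. Higher reads as fewer parasites (inferred from which compounds were picked for retests). Size under these conditions: about 67,000 compounds, about 260 of them at 50% or above in at least one test.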

Each number is a percent effect as filed.
The record does not define 0% and 100%; most values in the screen are far below 50% and negative numbers occur (in some assays of this library far below -100).
The compounds are a random part of those screened.
A dash means the value is not listed here; it may have been measured.

| SMILES | LiHisRS | Toxoplasma |
|---|---|---|
| `CNc1nc(N2CCN(C3CCCCC3)C(CCO)C2)nc2c1CCC2` (centres unmarked) | 17.11 | -5.589 |
| `Cc1nc(CC(=O)N2CCN(CCOc3ccccc3)CC2)cs1` | 14.71 | -6.992 |
| `Cc1nn(C)c2c(NCCCn3cccn3)nc(C(C)C)nc12` | 12.07 | 10.17 |
| `Cc1cnn(C2CN(CCOc3cccc(C#N)c3)C2)c1` | 8.85 | -11.62 |
| `Cc1ccc(Oc2ncccc2CNS(=O)(=O)N2CCOCC2)cn1` | -4.444 | 1.747 |
| `CNC(=O)c1nnc2ccc(N3CCOCC3)cc2n1` | 15.52 | 17.58 |
| `Cc1nc(N2CCC(CN3CCCC3)CC2)c2cnn(C)c2n1` | 43.36 | 11.63 |
| `COC(=O)CC(NC(=O)CCn1cccn1)c1ccc(C)cc1` (centres unmarked) | 16.67 | 0.7092 |
| `COc1ccc(COCC(O)CNC(=O)c2cnc(C)cn2)cc1` (centres unmarked) | 8.108 | 8.043 |
| `COC(C)(C)C(=O)N[C@H]1CN(c2nccnc2N(C)C)C[C@@H]1C(C)C` | 9.211 | 4.637 |
| `c1cc(CN2CCC3(CCOCC3COCC3CC3)CC2)co1` (centres unmarked) | 11.65 | - |
| `NC(=O)c1sc2ccccc2c1C1CCN(S(=O)(=O)N2CCOCC2)C1` (centres unmarked) | 7.143 | -13.31 |
| `Cc1ccc(C2CN(Cc3cnc(-c4cccnc4)s3)CCO2)o1` (centres unmarked) | 8.511 | 11.08 |
| `CS(=O)(=O)NCc1cc(-c2cc(F)cc(F)c2)nc(N2CC[C@H](O)C2)n1` | 17.14 | 1.21 |
| `CCc1nc(NS(=O)(=O)c2cccc(F)c2C)no1` | 7.865 | 8.88 |
| `Br.Cc1ccccc1OC1CCN(CC(=O)Nc2ccn(C)n2)CC1` | - | -44 |
| `Cc1nc(C2CCN(C)CC2)cc(N2CCOc3ccc(Cl)cc3C2)n1` | 40 | 8.735 |
| `CS(=O)(=O)Nc1ccn(Cc2ccc(Cl)cc2)n1` | 5.172 | 16.77 |
| `CCc1nnc2n1CCN(C(=O)C(C)Oc1cccc(C#N)c1)C2` (centres unmarked) | 11.67 | 18.82 |
| `Cc1cccnc1C(Cc1ccsc1)NC(=O)Cn1cccnc1=O` (centres unmarked) | 14.43 | 6.402 |
| `CCCN1C(=O)CC2(CCCNC2)C1=O.Cl` (centres unmarked) | - | 1.267 |
| `CCN1CCN(S(=O)(=O)c2cc(C)c(Cl)cc2Cl)CC1` | -2.83 | 7.14 |
| `CC(C)c1noc(CS(=O)(=O)CC(=O)NCC(F)(F)F)n1` | 12 | 2.141 |
| `CCn1cc(CN2CCC(O)(Cn3nc(C)ccc3=O)CC2)cn1` | 7.292 | 8.391 |
| `CSc1ccc2cc(CN(C)CCc3cn[nH]c3)c(=O)[nH]c2c1` | 22.22 | -11.8 |
| `O=C(NCC1(c2ccc(F)cc2)CCC1)N1CCC2(C1)OCCO2` | 6.349 | 8.791 |
| `COc1cccc(-c2cc(C(=O)NCCCn3cnnc3)[nH]n2)c1` | 20.65 | 7.008 |
| `CCSc1cc(C(=O)NC2CCN(C(=O)c3ccccc3)CC2)ccn1` | 17.95 | 4.969 |
| `Cc1nc(O)cc(C2CCN(Cc3cccc(F)c3F)C2)n1` (centres unmarked) | -2.778 | - |
| `CN(C)CCN(C)c1cc(N2CCN(c3ccccn3)CC2)ncn1` | 3.96 | 3.791 |
| `O=C(c1cc[nH]n1)N1CCN(C(c2ccccc2)C(F)(F)F)CC1` (centres unmarked) | 2.679 | 2.733 |
| `CCN(Cc1cccc2c1OCO2)C(=O)Nc1ccncc1` | 0 | 0.1112 |
| `CCOCC1CN(Cc2nccs2)Cc2nn(CC3CC3)cc21.O=C(O)C(F)(F)F` (centres unmarked) | - | -13.71 |
| `NS(=O)(=O)Cc1ccc(CNC(=O)NCC2CCOC2)cc1` (centres unmarked) | 18.67 | 3.367 |
| `Cc1cnn(CC2CCCN2Cc2nc3ccccc3c(=O)[nH]2)c1` (centres unmarked) | 10.71 | -12.63 |
| `Cc1ccc(CN2CCc3c(COCC4CC4)nn(C)c3C2)s1.O=C(O)C(F)(F)F` | - | -1.18 |
| `Cn1cc(N2CC3(COCCN(Cc4ccccn4)C3)OCC2=O)cn1` (centres unmarked) | 9.091 | - |
| `NC(=O)COc1ccc(C2NC(=O)CN2Cc2ccc(Br)cc2)cc1` (centres unmarked) | 21.43 | -8.911 |
| `[H][C@@]12C[C@@H](O)CN1C[C@@H](Cc1ccccc1)N(CC1CCCCC1)C2` | - | -34.74 |
| `CN(C)C(=O)C1CCN(C(=O)c2c[nH]c3cc(Cl)ccc23)CC1` | 11.71 | 3.977 |
| `O=C(O)C(F)(F)F.[H][C@@]12OCCN(Cc3ccoc3)[C@@]1([H])CC[C@H]2OCC1CCOCC1` | - | -7.024 |
| `CC(O)CC(C)(C)CNC(=O)NCc1cccc(-n2ccnc2)c1` (centres unmarked) | 7.547 | -2.286 |
| `O=C(Cc1ccsc1)N1CCC2(CCCN(CC3CCOCC3)C2)C1` (centres unmarked) | 30.26 | 6.776 |
| `CC(=O)N(C)[C@H]1CC[C@]2(CC1)CNC(=O)c1cc(C)ccc1O2` | 12 | -3.179 |
| `COCCn1ccnc1C1CCCN(C(=O)c2ccccc2C#N)C1` (centres unmarked) | 12.33 | 9.222 |
| `CC(C)C(=O)N1CCC(C2C(=O)Nc3ccccc32)CC1` (centres unmarked) | 11.65 | -13.36 |
| `Cc1cc(C)c(-c2nc(-c3c(C)ncc4c3CCNC4)no2)o1` | 20.78 | -13.09 |
| `O=C(O)c1ccn(-c2ccccc2NS(=O)(=O)c2cccc(Cl)c2F)n1` | 4.464 | 4.884 |
| `CC(C(=O)NC(C)(C)C)N1CCC(C(=O)Nc2cnccn2)CC1` (centres unmarked) | 1.408 | 14.92 |
| `COc1ccccc1-c1cc(C(=O)N(C)C)c2cnn(C)c2n1` | 1.379 | 12.45 |
| `CN(CC(F)(F)F)C(=O)CNC(=O)Cc1cccc(O)c1` | -38.36 | -12.79 |
| `CC(=O)N(Cc1ncc(C)o1)C1CCN(CCc2cccs2)C1` (centres unmarked) | 20.54 | 3.356 |

3 of the entries, repeated:

{"smiles": "O=C(Cc1ccsc1)N1CCC2(CCCN(CC3CCOCC3)C2)C1", "stereo": "centres unmarked", "LiHisRS": 30.26, "Toxoplasma": 6.776}
{"smiles": "Cc1nc(N2CCC(CN3CCCC3)CC2)c2cnn(C)c2n1", "LiHisRS": 43.36, "Toxoplasma": 11.63}
{"smiles": "O=C(NCC1(c2ccc(F)cc2)CCC1)N1CCC2(C1)OCCO2", "LiHisRS": 6.349, "Toxoplasma": 8.791}